Results are given in words; binding and its absence hold for the method and conditions named. Tags and fused reporters may be left off the sequences shown.
Columns and labels:
Assay in all cases: GST pull-down, electrophoresis and autoradiography
[1] = biological target: GST fusion of the DC fragment of Drosophila Dvl (Drosophila)
[2] = biological target: GST fusion of the DN fragment of Drosophila Dvl (Drosophila)
[3] = biological target: GST fusion of the PDZAN fragment of Drosophila Dvl (Drosophila)

binding [1]: no binding
binding [2]: no binding
binding [3]: no binding
B1: Myc-tagged mNkd protein, in vitro translated (protein, not shown: small tags and cut ends)
chain: MGKLHSKPAAVCKRRESPEGDSFAVSAAWARKGIEEWIGRQRCPGSVSGPRQLRLAGTVGRGTRELVGDTSREALGEEDEDDFPLEVALPPEKIDSLGSGDEKRMERLSEPGQASKKQLKFEELQCDVSVEEDSRQEWTFTLYDFDNNGKVTREDITSLLHTIYEVVDSSVNHSPTSSKTLRVKLTVAPDGSQSKRSVLFNHTDLQSTRPRADTKPAEELRGWEKKQRAPLRFQGDSHLEQPDCYHHCVDENIERRNHYLDLAGIENYTSQFGPGSPSVAQKSELPPRISNPTRSRSHEPEAAHIPHRRPQGVDPGSFHLLDTPFAKASELQQRLRGTQDGSKHFVRSPKAQGKNMGMGHGARGARSKPPLVPTTHTVSPSAHLATSPALLPTLAPLGHKKHKHRAKESQASCRGLQGPLAAGGSTVMGREQVRELPAVVVYESQAGQAVQRHEHHHHHHEHHHHYHHFYQP
modifications: labelled with 35S-methionine

Source: patent US20020061552A1 (published 2002)
